Out of some 340,000 compounds screened, about 4,500 (1.3%) were called active. This list was built around the results that the source calls inconclusive (neither active nor inactive); the mix of calls is not that of the screen. The call rests on the fitted dose curve; in most records, active means well fitted inhibition curve with a large enough effect; inconclusive means small, poorly fitted or top-dose-only effect, or another doubt; inactive means no such curve, though single readings can be large or run the other way. Potencies beside an inconclusive call are fits to weak or partial responses and may not hold up.
Biological target: DNA polymerase beta (Homo sapiens) (UniProt P06746)
Assay: qHTS Assay for Inhibitors of DNA Polymerase Beta
Conditions: Pol beta primer extension/strand displacement, fluorescence kinetic; activity change, negative = inhibition: at 114 µM (top of the series)
Outline: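 Homogeneous kinetic assay of primer extension and strand displacement by 10 nM Pol beta, preincubated 15 min at room temperature with compound before 50 nM substrate (final) was added. Read at 0 and 10 min; four-parameter Hill fit.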
On the % scale 0 is the no-effect control and ±100 the full control effect; potency means the concentration at half of the fitted maximal effect.

Potency, active:
CSc1nnc(-c2ccco2)c(-c2ccco2)n1 8.91 µM, CCN(CC)CCn1c2ccccc2c2cnc(N)c(C#N)c21 14.1 µM, Cc1cc2[nH]c(=O)c(=O)[nH]c2cc1S(=O)(=O)N1CCN(c2cccc(Cl)c2)CC1 35.5 µM

Potency, inconclusive:
CCCOc1ccc(C(=O)NNC(=S)NC(=O)c2cc(-c3ccc(Cl)cc3)nc3ccccc23)cc1 31.6 µM [inhibitor, full curve, poor fit], CCOc1[nH]n(-c2ccc(Cl)cc2)c(=O)c1C=Nc1ccc(OC)cc1 0.447 µM [inhibitor, partial curve, poor fit], Cn1c2ccccc2c2cc(/C=N/NC(=O)c3ccc(O)cc3O)ccc21 79.4 µM [inhibitor, single point], Cc1nn(-c2nc(-c3ccccc3)cc(C(F)(F)F)n2)c(C)c1Cl 89.1 µM [inhibitor, single point], CCc1ccc(NC(=O)NNC(=O)c2ccc3ccccc3c2O)cc1 39.8 µM [inhibitor, full curve], Cc1ccc(OCCSc2nc(-c3ccccc3C)nc3cc(=O)[nH]n23)cc1Cl 50.1 µM [inhibitor, partial curve, poor fit], Brc1ccc(CNc2nc3ccccc3n2CCN2CCCCC2)cc1 70.8 µM [inhibitor, partial curve, poor fit], COc1ccc(S(=O)(=O)N2CCN(c3ccccc3OC)CC2)cc1 79.4 µM [inhibitor, single point], O=C(/C=C/c1cccc([N+](=O)[O-])c1)N1CCN(c2ccccc2F)CC1 1.78 µM [inhibitor, full curve, poor fit], O=C(CN1CCN(S(=O)(=O)c2ccc(F)cc2)CC1)Nc1ccc(Cl)cn1 39.8 µM [inhibitor, single point], NC(=O)CSc1cn(Cc2ccc(F)cc2)c2ccccc12 0.501 µM [inhibitor, full curve, poor fit], COc1cccc(Nc2nc(N)nc(CCl)n2)c1 70.8 µM [inhibitor, single point], CC1=NN(c2ccccc2)C(=O)/C1=C\C=C\c1ccccc1 25.1 µM [inhibitor, partial curve], COc1cccc(C(C(=O)NC2CCCCC2)N(C(=O)c2ccco2)c2ccc(-n3cnnn3)c(C)c2)c1 (configuration not stated) 89.1 µM [inhibitor, single point], CCOc1cc(/C=C(/C#N)c2nc3ccccc3[nH]2)ccc1Oc1ccc([N+](=O)[O-])cn1 22.4 µM [inhibitor, full curve], CN(C(=O)c1ccc2c(c1)C(=O)N(CCC1=CCCCC1)C2=O)C1CCCCC1 6.31 µM [inhibitor, partial curve], Cc1cc2c(cc1S(=O)(=O)Nc1cc(C(F)(F)F)cc(C(F)(F)F)c1)OCC(=O)N2 79.4 µM [inhibitor, single point], CCOc1ccc2ncc(C(=O)c3ccc(OC)cc3)c(N3CCN(CC)CC3)c2c1 15.8 µM [inhibitor, partial curve], C/C(=N\Nc1nc(Nc2ccccc2)nc(N2CCOCC2)n1)c1cccs1 79.4 µM [inhibitor, single point], CCC(=O)Nc1ccc(C(=O)Nc2ccc(Br)cc2F)cc1 56.2 µM [inhibitor, partial curve], O=S(Cc1cc(Oc2ccccc2)nc(-c2ccccc2)n1)c1ccccc1 (configuration not stated) 89.1 µM [inhibitor, single point], CCOc1ccc(N2C(=O)/C(=C/c3ccco3)N(C)C2=S)cc1 25.1 µM [inhibitor, full curve], Cn1c(SCC(=O)c2ccc3c(c2)Cc2ccccc2-3)nnc1-c1ccccc1 44.7 µM [inhibitor, partial curve], COc1ccc(-c2csc(NC(=O)Cc3cc(OC)c(OC)c(OC)c3)n2)cc1OC 39.8 µM [inhibitor, single point], FC(F)(F)c1cc(-c2ccco2)nc(NCc2ccco2)n1 39.8 µM [inhibitor, single point], O=C(CNC(=O)c1ccco1)N=Nc1c(O)[nH]c2ccc([N+](=O)[O-])cc12 89.1 µM [inhibitor, single point], CN(C)CCCNC(=O)/C(=C/c1ccc(-c2ccc([N+](=O)[O-])cc2)o1)NC(=O)c1ccccc1 56.2 µM [inhibitor, partial curve, poor fit], Cc1cccn2c(=O)c(/C=C(\C#N)C(=O)NCc3ccco3)c(N3CCOCC3)nc12 39.8 µM [inhibitor, partial curve, poor fit], Cc1ccc(-c2cc(C(=O)N/N=C/c3c(C)nn(C)c3C)c3ccccc3n2)cc1C 15.8 µM [inhibitor, full curve]

Potency, inactive:
CCCOc1cccc(C2C(C(=O)c3ccco3)=C(O)C(=O)N2c2nnc(C)s2)c1 (configuration not stated), Cn1c(-c2csc(-c3ccccc3)n2)n[nH]c1=S, COc1cccc(NC(=O)CN2C(=O)c3ccccc3Sc3ncccc32)c1, Cc1ccc(-n2nc(C)c3c(C(F)(F)F)cc(-c4cccnc4)nc32)cc1Cl, Cc1nc2cccnc2n1C1CCN(C(=O)Nc2ccc(Cl)cc2)CC1, COC(=O)Cc1c(C)c2ccc3c(c2oc1=O)CN(Cc1ccccc1Cl)CO3, Cc1ccc(-c2csc3ncnc(N4CCN(c5ccccc5O)CC4)c23)cc1, Cc1ccc2cc(C3CC(c4ccco4)=NN3S(C)(=O)=O)c(Cl)nc2c1 (configuration not stated), C/C(=N\NC(=S)Nc1ccccc1C)c1ccc(O)cc1

Activity change, negative = inhibition, inconclusive:
COc1cc(/C=C(\C#N)c2nc3ccc(C)cc3[nH]2)ccc1OCc1ccc(C)cc1 -71.2% [inhibitor]
